# No constants are given. Whether binding was seen depends on the method and setting. In cells and extracts the contact can be indirect. Some entries that bind do so weakly or less than the wild type. For some assays here: Where a sequence is shown, tags or fusion partners need not be part of it.
# Amino acid sequences for entries named in this document (tags omitted).
# UniProt P45973: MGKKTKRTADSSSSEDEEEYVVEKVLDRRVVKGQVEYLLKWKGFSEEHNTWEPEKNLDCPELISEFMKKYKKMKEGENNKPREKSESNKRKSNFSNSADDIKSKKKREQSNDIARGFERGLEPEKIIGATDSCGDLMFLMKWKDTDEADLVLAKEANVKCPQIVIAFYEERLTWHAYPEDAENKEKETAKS
# UniProt Q61686: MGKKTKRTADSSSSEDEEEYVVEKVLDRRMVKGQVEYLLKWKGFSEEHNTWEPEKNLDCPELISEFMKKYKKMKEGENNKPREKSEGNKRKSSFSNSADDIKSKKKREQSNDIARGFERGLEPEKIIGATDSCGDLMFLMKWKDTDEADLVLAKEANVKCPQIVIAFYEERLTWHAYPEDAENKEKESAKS
# T1: endogenous JHDM3A (mouse (endogenous in C2C12)) (UniProt Q8BW72)
# T1 sequence: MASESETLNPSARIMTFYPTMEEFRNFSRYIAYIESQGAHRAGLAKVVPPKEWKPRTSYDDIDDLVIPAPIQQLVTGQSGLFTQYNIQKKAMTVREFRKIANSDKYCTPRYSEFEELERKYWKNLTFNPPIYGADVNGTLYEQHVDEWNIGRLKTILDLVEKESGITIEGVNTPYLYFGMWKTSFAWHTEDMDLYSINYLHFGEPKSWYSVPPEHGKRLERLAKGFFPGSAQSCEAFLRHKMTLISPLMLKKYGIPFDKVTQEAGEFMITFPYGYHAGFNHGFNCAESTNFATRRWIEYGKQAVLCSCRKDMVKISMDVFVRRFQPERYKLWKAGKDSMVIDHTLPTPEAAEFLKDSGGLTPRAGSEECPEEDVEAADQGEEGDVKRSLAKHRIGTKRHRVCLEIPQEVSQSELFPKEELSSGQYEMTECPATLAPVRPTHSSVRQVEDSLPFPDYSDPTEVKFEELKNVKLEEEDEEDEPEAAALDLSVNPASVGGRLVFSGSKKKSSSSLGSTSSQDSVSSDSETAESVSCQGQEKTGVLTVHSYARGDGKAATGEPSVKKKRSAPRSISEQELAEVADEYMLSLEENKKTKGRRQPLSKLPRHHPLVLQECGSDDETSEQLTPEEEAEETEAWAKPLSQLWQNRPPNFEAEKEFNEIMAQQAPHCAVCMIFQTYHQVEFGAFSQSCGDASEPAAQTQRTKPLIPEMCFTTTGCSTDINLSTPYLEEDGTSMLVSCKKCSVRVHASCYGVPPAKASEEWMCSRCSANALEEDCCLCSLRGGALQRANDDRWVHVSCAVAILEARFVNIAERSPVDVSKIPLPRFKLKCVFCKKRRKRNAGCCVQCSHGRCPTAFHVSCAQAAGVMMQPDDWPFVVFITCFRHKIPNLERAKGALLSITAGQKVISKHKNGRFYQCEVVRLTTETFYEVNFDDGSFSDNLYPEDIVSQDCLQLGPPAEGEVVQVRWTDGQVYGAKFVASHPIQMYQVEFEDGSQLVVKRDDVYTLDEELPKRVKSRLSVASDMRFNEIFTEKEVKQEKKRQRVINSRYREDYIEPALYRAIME
# T2: Flag-JHDM3A (UniProt O75164)
# T2 sequence: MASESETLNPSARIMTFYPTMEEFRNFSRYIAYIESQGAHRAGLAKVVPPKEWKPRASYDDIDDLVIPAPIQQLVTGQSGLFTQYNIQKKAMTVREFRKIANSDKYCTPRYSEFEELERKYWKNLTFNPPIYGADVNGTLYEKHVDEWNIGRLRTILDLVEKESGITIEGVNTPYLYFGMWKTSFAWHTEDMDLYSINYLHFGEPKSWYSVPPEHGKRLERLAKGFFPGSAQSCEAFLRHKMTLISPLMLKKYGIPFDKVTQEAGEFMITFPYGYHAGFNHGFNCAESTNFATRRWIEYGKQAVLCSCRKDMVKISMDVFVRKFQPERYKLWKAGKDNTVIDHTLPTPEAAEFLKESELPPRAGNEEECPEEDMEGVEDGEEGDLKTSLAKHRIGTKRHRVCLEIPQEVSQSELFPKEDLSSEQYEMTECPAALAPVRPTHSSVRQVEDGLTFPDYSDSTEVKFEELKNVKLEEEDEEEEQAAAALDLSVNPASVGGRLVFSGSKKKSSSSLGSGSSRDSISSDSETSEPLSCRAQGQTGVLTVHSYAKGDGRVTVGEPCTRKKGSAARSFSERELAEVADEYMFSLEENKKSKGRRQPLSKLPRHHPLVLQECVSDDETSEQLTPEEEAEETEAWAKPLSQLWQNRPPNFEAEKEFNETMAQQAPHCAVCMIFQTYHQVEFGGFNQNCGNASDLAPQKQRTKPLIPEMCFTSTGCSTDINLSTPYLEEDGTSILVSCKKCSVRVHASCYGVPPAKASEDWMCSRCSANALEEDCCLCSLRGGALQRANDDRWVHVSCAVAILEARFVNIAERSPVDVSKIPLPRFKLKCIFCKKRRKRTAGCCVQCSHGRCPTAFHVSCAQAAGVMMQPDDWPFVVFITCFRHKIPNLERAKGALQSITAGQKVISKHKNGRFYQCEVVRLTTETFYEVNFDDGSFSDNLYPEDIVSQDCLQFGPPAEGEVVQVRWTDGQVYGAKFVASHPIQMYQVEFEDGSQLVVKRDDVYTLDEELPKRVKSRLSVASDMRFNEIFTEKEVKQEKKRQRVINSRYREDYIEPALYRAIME
# B1: Flag-JHDM3A (protein, UniProt O75164 1-1064)
# chain: T2 sequence
# B2: endogenous JHDM3A (protein, UniProt Q8BW72 1-1064)
# chain: T1 sequence
# B3: In vitro translated 35S-methionine-labeled JHDM3A (protein, UniProt O75164 1-1064)
# chain: T2 sequence
# modifications: 35S-methionine-labeled
# Tests used:
# [1] = target: T1, endogenous JHDM3A (mouse (endogenous in C2C12)); experiment: co-IP; nuclear extracts of unmodified C2C12 myoblasts; IP with anti-HP1α or anti-JHDM3A, blot for HP1α and JHDM3A
# Flag-JHDM3A = target: T2, Flag-JHDM3A; experiment: co-IP; nuclear extracts of NIH3T3 cells over-expressing Flag-JHDM3A and GFP-HP1α; IP with anti-Flag or anti-GFP, blot with anti-HP1α or anti-JHDM3A
# GFP-HP1α = GFP-HP1α (UniProt P45973); experiment: as above
# [2] = target: endogenous HP1α (mouse (endogenous in C2C12)) (UniProt Q61686); experiment: co-IP; nuclear extracts of unmodified C2C12 myoblasts; IP with anti-HP1α or anti-JHDM3A, blot for HP1α and JHDM3A
# [3] = target: recombinant GST-HP1α fusion protein (UniProt Q61686); experiment: pull-down; in vitro translated 35S-JHDM3A incubated with GST or GST-HP1α immobilized on glutathione beads; SDS-PAGE and autoradiography; only the target purified
molecule,measurement,setting,value
endogenous HP1α (from UniProt Q61686 1-191),binding,[1],binds
GFP-HP1α (from UniProt P45973 1-191),binding,Flag-JHDM3A,binds
B1,binding,GFP-HP1α,binds
B2,binding,[2],binds
B3,binding,[3],binds
